Assay results published in paper PMC12206918.
No constants are given. Whether binding was seen depends on the method and setting. Binding seen in cells or lysates may run through a third protein. Some binding calls cover weakened binding; strength is not graded here. For some assays here: Tags and fused reporters may be left off the sequences shown. Blank lines part the entries; values can stand above or below the molecule they belong to.

Amino acid sequences for entries named in this document (tags omitted). Residues count along the entry.
UniProt P80188, residues 21-198: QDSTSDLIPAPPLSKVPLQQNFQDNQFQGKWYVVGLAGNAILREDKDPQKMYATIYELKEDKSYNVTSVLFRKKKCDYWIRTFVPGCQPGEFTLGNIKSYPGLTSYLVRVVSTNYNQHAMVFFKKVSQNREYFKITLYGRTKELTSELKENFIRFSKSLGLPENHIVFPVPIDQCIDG

Assays:
[1] = molecular target: T1, Fn14-3FLAG overexpressed in HaCaT cells (LV-hTNFRSF12A-3FLAG-OE) (human) (UniProt Q9NP84); test: co-IP; HaCaT cells overexpressing Fn14-3FLAG (lentivirus), stimulated with LCN2; Fn14 enriched with anti-Flag magnetic beads; blot for LCN2 and Fn14; only the binder purified
T1 sequence: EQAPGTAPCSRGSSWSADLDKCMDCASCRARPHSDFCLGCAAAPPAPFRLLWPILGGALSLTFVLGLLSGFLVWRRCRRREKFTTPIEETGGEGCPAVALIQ

[2] = molecular target: T2, Fn14 (TNFRSF12A), endogenous in HaCaT cells (human (endogenous in HaCaT)) (UniProt Q9NP84); test: co-IP; HaCaT cells stimulated with rmLCN2 for 48 h; total protein incubated with mouse anti-human Fn14 antibody on protein A/G magnetic beads; blot for LCN2 and Fn14; only the binder purified
T2 sequence: T1 sequence

binding [1]: binds
Molecule: LCN2 added to Fn14-3FLAG-overexpressing HaCaT cells (from UniProt P80188 21-198)

binding [2]: binds
B1: recombinant mouse LCN2 (rmLCN2) (protein, UniProt P11672 21-200)
chain: QDSTQNLIPAPSLLTVPLQPDFRSDQFRGRWYVVGLAGNAVQKKTEGSFTMYSTIYELQENNSYNVTSILVRDQDQGCRYWIRTFVPSSRAGQFTLGNMHRYPQVQSYNVQVATTDYNQFAMVFFRKTSENKQYFKITLYGRTKELSPELKERFTRFAKSLGLKDDNIIFSVPTDQCIDN
